Measured values: PubChem BioAssay AID2417 (National Center for Advancing Translational Sciences (NCATS), 2010)
Screen size: about 140,000 compounds; about 4,300 (3.1%) were called active. The shares of active, inactive and inconclusive entries below differ from those in the screen.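 Rule for the calls: active = readout at or below -70, meaning at least 70% loss of cells showing the perinucleolar compartment, a nuclear body marking cancer cells; inconclusive = readout between -30 and a set limit; inactive = the rest.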

Assay: High Content Assay for Compounds that inhibit the Assembly of the Perinucleolar Compartment;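 note: plate controls were DMSO wells for no effect and camptothecin positive control wells for full effect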
Conditions: PC3M PTB-GFP, PNC prevalence imaging, 16 h; at 10 µM; stronger effect = lower value
In short: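 Read-out is percentage of cells bearing a perinucleolar compartment, from automated 20x imaging of fixed, Hoechst-stained PC3M PTB-GFP cells. Cells were seeded 4 h, then exposed 16 h to compound (23 nl of library stock) in duplicate plates.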

SMILES | activity change (PNC), negative = inhibition
Cc1cc(NC(=O)CCC(=O)N(c2cccnc2)C(C(=O)NC2CCCC2)c2ccccc2)no1 (stereo not given) | inconclusive: -31%
O=C1c2ccccc2CC1Sc1nnc(-c2ccccn2)o1 (stereo not given) | inactive: 13.1%
CCOC(=O)c1ccc(NC(=O)CCS(=O)(=O)c2ccc(Br)s2)cc1 | inconclusive: -53.9%
Cc1sc(NC(=O)Cc2ccc3c(c2)OCO3)nc1-c1ccc2c(c1)CCN2C(=O)c1cccc(F)c1 | active: -119%
CCOC(=O)c1ccc2c(c1)C1C=CCC1C(C(=O)O)N2 (stereo not given) | inactive: -18.9%
COc1ccccc1C1C([N+](=O)[O-])=CC([N+](=O)[O-])=CN1C (stereo not given) | inconclusive: -59.3%
CCn1c2ccccc2c2cc(/C=N/NC(=O)c3ccccc3C)ccc21 | inconclusive: -40.9%
Cc1ccccc1CSc1ccc(-c2ccc3c(c2)OCO3)nn1 | inconclusive: -38.4%
O=C(Nn1c(C2CCCCC2)nc2ccccc2c1=O)c1ccc([N+](=O)[O-])cc1 | inconclusive: -45.8%
CCOC(=O)N1CCC(NS(=O)(=O)c2cc(Br)cnc2N)CC1 | inconclusive: -42%
COc1cc(CSc2ncn[nH]2)c(OC)cc1CSc1ncn[nH]1 | inconclusive: -34.4%
Cc1cc2cc(C(c3nnnn3CC3CCCO3)N3CCCc4ccccc43)c(=O)[nH]c2cc1C (stereo not given) | inconclusive: -44.9%
CCCOc1nc2c(c(=O)n(C)c(=O)n2C)n1CCC | inconclusive: -36%
CN(C)c1ccnc2sc3c(NCC(O)CO)ncnc3c12 (stereo not given) | inactive: 31.3%
Cc1cccc(N2C(=O)C(Oc3ccc(Cl)cc3Cl)C2C(=O)O)c1C (stereo not given) | inconclusive: -46.9%
Cc1ccc(Sc2nc(-c3ccccc3)nnc2C(F)(F)F)cc1 | inconclusive: -57.7%
CCNc1ccc(C(=O)OCC(=O)NC(C)c2ccccc2)cc1[N+](=O)[O-] (stereo not given) | inconclusive: -38.3%
CCn1c(-c2ccccc2O)n[nH]c1=S | active: -115%
Cc1cc(C)cc(OCC(=O)N2N=C(c3cccnc3)CC2(O)C(F)(F)F)c1 (stereo not given) | inconclusive: -68.9%
COc1cc(-c2ccccc2)nc2ccccc12 | inactive: 224%
COc1cc(C(=O)Nc2cccc3cccnc23)cc(OC)c1OC | inconclusive: -44.6%
O=C(Nc1ncc(Cc2ccccc2)s1)C1COc2ccccc2O1 (stereo not given) | inconclusive: -46%
CCOC(=O)C1CCN(C(=O)Nc2ccc(NC(=O)C3CCN(C(=O)OCC)CC3)cc2)CC1 | inactive: 20.9%
Cc1cccc(OCCCCCn2ccnc2)c1 | inconclusive: -59.2%
CCOc1ccccc1NC(=O)Nc1ccc(Cl)cc1 | inconclusive: -48.6%

Some of these compounds in order of SMILES length, low to high:
SMILES | activity change (PNC), negative = inhibition
Cc1ccccc1CSc1ccc(-c2ccc3c(c2)OCO3)nn1 | inconclusive: -38.4%
CCn1c2ccccc2c2cc(/C=N/NC(=O)c3ccccc3C)ccc21 | inconclusive: -40.9%
Cc1cc(C)cc(OCC(=O)N2N=C(c3cccnc3)CC2(O)C(F)(F)F)c1 (stereo not given) | inconclusive: -68.9%
